The record followed here is PubChem BioAssay AID1508600 (Functional Genomics Laboratory (NCATS/FGL), 2020).

Screen size: about 53,000 sequences; about 3,700 (7%) were called active.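 How the source made its calls: active means gene knockdowns whose robust z-score for IL-1 alpha signal is at least 2 or at most -2, so actives lie on both sides; inactive means the rest.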 This is one part of the list.

This experiment in a line: Components of the Cytosolic LPS Sensing Pathway: Gene Identification via Genome-wide siRNA Screen.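 Further: robust z of the log signal after scaling to non-targeting control siRNA wells of the plate.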 As to conditions: RAW264.7 macrophages, IL-1a HTRF, actives lie on both sides, screened at 100 nM (by protocol), cells primed 5 h with Pam3CSK4 first. In a few lines: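 RAW264.7; siRNA 100 nM final, RNAiMAX, 48h 37 degrees C; Pam3CSK4 5 h; LipidA + TransIT-TKO 24 h; IL-1a HTRF; CellTiter-Glo viability; robust z vs negative-control median.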
In the case of GGUUACCGCUAUCGUCAAGTT against Sufu, the z-score was inactive: -0.364.

Turning to GGUUUGAGCCACCUACUAUTT against Bco2, the z-score is inactive: -0.62. For the sequence ACUCCCAUGUUGAAUCCAUTT against Olfr1202, the z-score was inactive: 1.33. As to GGGAUUCAUCACUGAAAAGTT against Mmel1, the z-score is inactive: -0.0466. On to GGUAUUUCUACUGUGACAGTT against Olfr1055, for which the z-score is inactive: -0.338. Take GCCUCUUCAAUCACAUUUATT against Atp6v0a4: the z-score is active: 3.27. On to GGAACCUAUUUUUUCGUAUTT against Gen1, for which the z-score was inactive: -0.322.

In the case of GGAGACCUUACCACUUGAATT against Ephx1, the z-score is inactive: -1.2.

For CGACAUUGAUAUCGUGCGCTT against Gadd45g, the z-score was inactive: -0.827. As for GGGUUCUGUCACUAUAAUATT against Defb10, the figure is inactive: -0.0651. As for GACGACUUGAUUGUAAGCATT against Amt, the figure is inactive: -0.492; as for CCAACACAACUGGUAAAAUTT against Plcb4, inactive: 0.26; as for GGCCAUUGGCUGGACAAAUTT against Mppe1, inactive: -0.568. Take GGUUAACCCAAUGCCAGUGTT against Cyba: the z-score was inactive: 0.65. For the sequence CCCUCGAGUGACCAUAGUGTT against Gnptab, the z-score was inactive: 1.03.

On to GGCUUGAUCCUUAGCUUAATT against Gpld1, for which the z-score is inactive: 0.127. As to GCGGAGAUGUACACAAAAGTT against Nqo2, the z-score was inactive: -1.01. Consider GGGCACCUUAUACCAUAGATT against Bfar, for which the z-score was inactive: 0.345. For the sequence GGAACUGGCCAAGUUUAAATT against Ing3, the z-score is inactive: 0.653. Under GGAAAAUUACUCCACUUUUTT against R3hdm1 stands inactive: 1.36; under GGAUAUGCACUGUUUUCAATT against Nudt16, active: 2.28.

Consider CCUGUGAGAUAAGCGAAGCTT against Edil3, for which the z-score was inactive: 0.458. For GGAUUGGAUUUCUUAGUUCTT against Myo1c, the z-score was inactive: -0.285. Take CCACAGUAUCAUGUAACUATT against Il1a: the z-score was active: -2.23.

On to CCAAGGGUAUGUCCAUCAUTT against Gm5154, for which the z-score was inactive: 0.408. CCCAUUUGAAAUUAGGGUATT against Mief1: the z-score is inactive: 0.607. With GGCCUCCAGAAACAACUCGTT against Ndst2, the z-score is inactive: -1.14.

For GGAGAAGUACAACGCAGCGTT against Wnt7b, the z-score was inactive: -0.273. With GGAGACUAUGAAAAAAUCCTT against Anxa1, the z-score was inactive: -1.13. Consider CCAGCUACCAGCUGUUUAATT against Txn1, for which the z-score is inactive: -1.2. For the sequence GGACGACUACAACUACUACTT against Slc18a3, the z-score was inactive: 0.794.

As to GCUUCUCAAAUCUAGGAUCTT against Kcnj2, the z-score was inactive: -0.525.

Consider GCCAGUCAUCUUUGUAGUCTT against Olfr411, for which the z-score is inactive: -0.777.

Take GGACAAUUGUCGACUGUUCTT against Thbs3: the z-score is inactive: -0.206. In the case of GGUGGUAAAUCGAAUUGUUTT against Tmem185b, the z-score was inactive: -0.171.

For GCCAGAAUAAACAUUAGUGTT against Ccdc54, the z-score was inactive: -0.478. Regarding GGAUGCUGAAGUAAUAGUGTT against Tbc1d15, the z-score was inactive: 0.0714. For GGCACCCUCAAGAAAGCGUTT against Nol6, the z-score is inactive: -1.34.

For GGUCCAAUCGACAACACUATT against Usp33, the z-score was inactive: 0.359. Turning to CCUACUAUAGUACCAACCATT against Rnf111, the z-score is inactive: -0.683.

In the case of GGGAAAAAGCUGGGAAUAUTT against Zbtb38, the z-score is inactive: -0.721. As for GGAUGACGACUGCACUUACTT against Itgb4, the figure is inactive: 1.21. GGAGAAUAUUGAGUCCUUCTT against Slc2a5: the z-score was inactive: 0.525. In the case of GGUUUCCCUAGGAAAAAACTT against Klk1b9, the z-score is inactive: -1.73.

For the sequence GCAGACCAUGGCCUCAGAUTT against Sh3bp1, the z-score was inactive: 0.179. Under GGAUUUUAGAAGUAAUGGGTT against Zbtb32 stands inactive: -0.928. Under GCUGCGCAGUUUAGAAGAGTT against Rab24 stands inactive: 0.781; under GGCAUCAUAAAGCCAGGCATT against Sybu, active: -2.42. Turning to GCUAGAGACGAGAAGAUGATT against Ano10, the z-score is active: -2.47. Take GCGUAGACUUGAGGACUUATT against Uimc1: the z-score is inactive: -0.705. With GGUAGACAAGCUGUUUGAUTT against Meak7, the z-score was inactive: -0.429.

Turning to GGAACCAAGCCAUGAUUUUTT against Mrgprb2, the z-score is inactive: 0.646. On to GCUCGUUUACUCUUACACCTT against Lefty2, for which the z-score was inactive: 0.966. GGGAGCUAAGAAGAUUCAUTT against Mul1: the z-score was inactive: 0.89.

Regarding CCAUACAAGAGUGACAGUUTT against Olfr810, the z-score was inactive: -0.736. Turning to CAGGCAUCGAAACAUUCAUTT against Olfr672, the z-score is inactive: 1.35. Under GGAAGGAAAAAGGCUUUUGTT against Olfr135 stands inactive: 1.35; under GGAUACUUAGUCUUGAAUCTT against Mterf3, inactive: -0.0324; under GCUGGUGUGUAAUUACGUUTT against Gli1, inactive: 0.378.

As for GGCACCUGAGCGAUUUGAUTT against Trmt1, the z-score was inactive: -1.26. As to GGGCUACAUAACCAUCCGUTT against Bcam, the z-score is inactive: 0.99.

Regarding CCAGGCAGCUAAACUGUGUTT against Tex11, the z-score was inactive: -0.11. As for GGAUUUAUCCCAAAAUCUATT against Tmem26, the figure is inactive: 0.42; as for GCUAUGUUCACUAUCCCACTT against Alg11, inactive: -1.08. Under GGUGAAGACUGGAACAAGATT against Nalcn stands inactive: -0.0705. For GGAAGAGAGAAUAAGUAUCTT against Robo2, the z-score was inactive: -0.791.

As for CCCUAACUUGGAUAAGCUGTT against Cyb5r1, the z-score was inactive: -0.352. GGCUCCUGUAUCUUGAUGUTT against Zfp418: the z-score was inactive: 0.436.
